At least one structure is not confirmed: it was looked up by name or label, or the drawing left a doubt.
System: 3T3-L1 cells
Assay: Adipocyte differentiation of 3T3-L1 cells (Northern blot, Oil Red O)
Format: cell-based, murine
Conditions: 3T3-L1, 6 days; F-L-Leu 10^−5 M, rosiglitazone 10^−7 M

SMILES: CN(CCOc1ccc(CC2SC(=O)NC2=O)cc1)c1ccccn1 (stereo not shown) [rosiglitazone, reference compound]
- neutral lipid accumulation (Oil Red O staining): capable of inducing neutral lipid accumulation
